Positions count from the first letter of the chain named. Results are given in words; binding and its absence hold for the method and conditions named. A result given as binding can be weak or reduced; the word gives no strength.
B1: CNG-CD19-706 (antibody, V domains shown)
VH: QVQLQESGPGLVKPSQTLSLTCTVSGGSIASGMGVSWIRQHPGKGLEWIGHIWWDDDKRYNPALKSRVTISVDTSKNQFSLKLSSVTAADTAVYYCARMELWSYYFDPWGQGTLVTVSS
VL: EIVLTQSPATLSLSPGERATLSCSASSSVGYMHWYQQKPGQAPRLLIYDTSKLASGIPARFSGSGSGTDFTLTISSLEPEDFAVYYCFQGSVYPFTFGQGTKLEIK
B2: CNG-CD19-707 (antibody, V domains shown)
VH: QVQLQESGPGLVKPSQTLSLTCTVSGGSISTSTMGVGWIRQHPGKGLEWIGFIWWDDDKRYNPNLKSRVTMSVDTSKNQFSLKLSSVTAADTAVYYCARMELWSYYFDPWGQGTLVTVSS
VL: B1 VL
B3: CNG-CD19-708 (antibody, V domains shown)
VH: B2 VH
VL: B1 VL with A54S
B4: CNG-CD19-710 (antibody, V domains shown)
VH: B2 VH with G27V, T33S, F52H, I53A, N64A, M71I
VL: B1 VL with V29F, G30S
B5: CNG-CD19-103 (antibody, V domains shown)
VH: QVQLVQSGAEVKKPGASVKVSCKASGYTFTDYIMHWVRQAPGQGLEWMGYINPYNDGSKYTEKFQGRVTMTSDTSISTAYMELSRLRSDDTAVYYCARGTYYYGPQLFDYWGQGTTVTVSS
VL: DIVMTQTPLSLSVTPGQPASISCKSSQSLETATGTTYLNWYLQKPGQSPQLLIYRVSRRFSGVPDRFSGSGSGTDFTLKISRVEAEDVGVYYCLQLLEDPYSFGQGTKLEIK
B6: CNG-CD19-105 (antibody, V domains shown)
VH: B5 VH with T28E, Q65E, Q106E
VL: B5 VL with S28R, A32S, Y101P, S102T
B7: CNG-CD19-109 (antibody, V domains shown)
VH: B5 VH with T28D, M34V, K59L
VL: B5 VL with S28Q, A32S, V56A, R58K
B8: CNG-CD19-107 (antibody, V domains shown)
VH: B5 VH with T28D, G66H
VL: B5 VL with A32S, S102T
B9: CNG-CD19-110 (antibody, V domains shown)
VH: B5 VH
VL: B5 VL with A32S, V56S, R58K, Y101P, S102T
B10: CNG-CD19-104 (antibody, V domains shown)
VH: B5 VH with T28D, M34V, Q106E
VL: B5 VL with S26G, A32S, S102T
B11: CNG-CD19-108 (antibody, V domains shown)
VH: B5 VH with T28D, M34V
VL: B5 VL with A32V, R58K, Y101P, S102T
B12: CNG-CD19-106 (antibody, V domains shown)
VH: B5 VH with T28D, K59E
VL: B5 VL with S102T

These binders were tested against cynomolgus CD19 (cynomolgus) (assay: Octet HTX (ForteBio), IgG on AHC sensor).

binding	Binder
binds	B1
binds	B2
binds	B3
binds	B4
binds	B5
binds	B6
binds	B7
binds	B8
binds	B9
binds	B10
binds	B11
binds	B12

Source: patent US20230037815A1
